Paper PMC3245254
No constants are given. Whether binding was seen depends on the method and setting. Binding seen in cells or lysates may run through a third protein. Some results given as binding are weak or reduced against the parent protein; the word gives no strength.

Chains of the proteins cited; added tags and fusions are not shown.
UniProt Q9Y6G5: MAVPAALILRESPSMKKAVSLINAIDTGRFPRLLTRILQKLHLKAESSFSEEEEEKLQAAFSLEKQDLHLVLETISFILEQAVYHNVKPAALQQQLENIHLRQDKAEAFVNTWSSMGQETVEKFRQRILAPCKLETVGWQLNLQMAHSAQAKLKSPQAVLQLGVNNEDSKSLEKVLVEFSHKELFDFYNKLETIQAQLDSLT
UniProt Q9NX08: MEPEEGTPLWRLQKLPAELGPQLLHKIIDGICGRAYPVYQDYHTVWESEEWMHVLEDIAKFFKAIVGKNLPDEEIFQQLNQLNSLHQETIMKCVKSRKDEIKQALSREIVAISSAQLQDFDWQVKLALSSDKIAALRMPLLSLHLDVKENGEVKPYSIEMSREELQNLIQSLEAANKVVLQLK
UniProt Q86X83: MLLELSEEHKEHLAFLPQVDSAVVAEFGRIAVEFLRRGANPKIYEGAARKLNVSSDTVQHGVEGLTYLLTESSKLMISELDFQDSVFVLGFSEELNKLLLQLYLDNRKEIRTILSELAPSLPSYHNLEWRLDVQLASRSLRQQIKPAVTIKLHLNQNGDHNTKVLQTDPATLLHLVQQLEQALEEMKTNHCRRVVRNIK
UniProt Q8N668: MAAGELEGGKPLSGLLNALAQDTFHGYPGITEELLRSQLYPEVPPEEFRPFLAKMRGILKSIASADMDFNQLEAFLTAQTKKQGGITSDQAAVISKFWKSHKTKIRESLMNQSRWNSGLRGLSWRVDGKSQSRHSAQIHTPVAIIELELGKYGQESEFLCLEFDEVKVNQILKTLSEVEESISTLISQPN
UniProt P35670: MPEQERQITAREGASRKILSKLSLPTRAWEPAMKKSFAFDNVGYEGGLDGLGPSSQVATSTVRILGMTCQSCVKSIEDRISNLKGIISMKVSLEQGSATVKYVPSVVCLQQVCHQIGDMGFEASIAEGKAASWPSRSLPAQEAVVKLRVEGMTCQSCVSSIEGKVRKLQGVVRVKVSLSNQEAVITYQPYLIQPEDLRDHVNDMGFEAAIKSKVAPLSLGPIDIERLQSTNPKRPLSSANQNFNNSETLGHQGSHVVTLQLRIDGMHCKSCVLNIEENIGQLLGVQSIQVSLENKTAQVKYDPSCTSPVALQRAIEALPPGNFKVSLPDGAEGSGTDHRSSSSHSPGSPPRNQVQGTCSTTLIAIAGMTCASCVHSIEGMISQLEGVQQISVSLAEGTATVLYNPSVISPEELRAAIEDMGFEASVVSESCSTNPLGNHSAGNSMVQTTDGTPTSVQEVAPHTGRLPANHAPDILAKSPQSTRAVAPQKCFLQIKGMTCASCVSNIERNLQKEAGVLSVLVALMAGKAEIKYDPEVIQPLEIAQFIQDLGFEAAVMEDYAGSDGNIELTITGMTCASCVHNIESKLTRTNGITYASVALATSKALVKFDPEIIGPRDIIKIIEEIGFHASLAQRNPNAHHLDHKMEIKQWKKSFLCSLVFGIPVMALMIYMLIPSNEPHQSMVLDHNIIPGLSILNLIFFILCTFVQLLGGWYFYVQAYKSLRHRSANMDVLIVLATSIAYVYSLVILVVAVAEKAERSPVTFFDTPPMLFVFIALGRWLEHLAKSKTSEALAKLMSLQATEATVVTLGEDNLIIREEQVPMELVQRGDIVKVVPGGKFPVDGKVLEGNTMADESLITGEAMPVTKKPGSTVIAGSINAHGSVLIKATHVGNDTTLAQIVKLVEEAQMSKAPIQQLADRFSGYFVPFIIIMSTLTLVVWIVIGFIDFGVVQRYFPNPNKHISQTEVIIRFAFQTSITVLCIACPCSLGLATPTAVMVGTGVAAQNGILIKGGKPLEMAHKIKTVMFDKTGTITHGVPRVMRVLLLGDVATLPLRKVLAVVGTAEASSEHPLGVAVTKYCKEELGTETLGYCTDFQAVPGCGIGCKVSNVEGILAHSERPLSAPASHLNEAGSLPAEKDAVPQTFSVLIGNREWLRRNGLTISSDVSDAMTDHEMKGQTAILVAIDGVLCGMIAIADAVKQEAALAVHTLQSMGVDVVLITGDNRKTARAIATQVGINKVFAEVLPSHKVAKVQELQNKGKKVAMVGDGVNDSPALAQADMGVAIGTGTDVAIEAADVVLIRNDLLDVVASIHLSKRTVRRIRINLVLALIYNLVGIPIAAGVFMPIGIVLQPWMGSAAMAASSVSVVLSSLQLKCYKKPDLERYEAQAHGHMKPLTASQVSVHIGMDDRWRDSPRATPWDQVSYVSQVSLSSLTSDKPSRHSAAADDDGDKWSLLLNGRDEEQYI

Assays:
Experiment in all cases: pull-down; Glutathione-sepharose (GSH) precipitation of lysates of HEK293T cells co-transfected with GST-COMMD fusion and ATP7B-Flag; precipitates washed, SDS-PAGE, immunoblot; also in HEK293T cells with stable knockdown of COMMD1 (shCOMMD1) or empty shRNA vector (shControl)
[1] = target: COMMD10 as GST fusion protein (UniProt Q9Y6G5)
[2] = target: COMMD8 as GST fusion protein (UniProt Q9NX08)
[3] = target: COMMD2 as GST fusion protein (UniProt Q86X83)
COMMD1 fused to GST = COMMD1 fused to GST (UniProt Q8N668)

Measured: binding

ATP7B-Flag (from UniProt P35670 1-1465)
binds: all assays above
